Source: PubChem BioAssay AID1671190 (National Center for Advancing Translational Sciences (NCATS), 2021)
The whole screen tested about 580,000 compounds, of which about 6,100 (1.1%) were called active. The inconclusive results got no clear call from the source; some entries with a clear call stand among them for comparison. Calls come from the whole dose curve; as a rule, active = well fitted inhibition curve with a large enough effect; inconclusive = small, poorly fitted or top-dose-only effect, or another doubt; inactive = no such curve, though single readings can be large or run the other way. Potencies of inconclusive entries are doubtful fits and often do not repeat.

The chains behind the UniProt entries cited, without tags or fusion partners. Where a name states a change or a piece, a line headed by the entry shows the natural chain unless it says otherwise.
UniProt P18054: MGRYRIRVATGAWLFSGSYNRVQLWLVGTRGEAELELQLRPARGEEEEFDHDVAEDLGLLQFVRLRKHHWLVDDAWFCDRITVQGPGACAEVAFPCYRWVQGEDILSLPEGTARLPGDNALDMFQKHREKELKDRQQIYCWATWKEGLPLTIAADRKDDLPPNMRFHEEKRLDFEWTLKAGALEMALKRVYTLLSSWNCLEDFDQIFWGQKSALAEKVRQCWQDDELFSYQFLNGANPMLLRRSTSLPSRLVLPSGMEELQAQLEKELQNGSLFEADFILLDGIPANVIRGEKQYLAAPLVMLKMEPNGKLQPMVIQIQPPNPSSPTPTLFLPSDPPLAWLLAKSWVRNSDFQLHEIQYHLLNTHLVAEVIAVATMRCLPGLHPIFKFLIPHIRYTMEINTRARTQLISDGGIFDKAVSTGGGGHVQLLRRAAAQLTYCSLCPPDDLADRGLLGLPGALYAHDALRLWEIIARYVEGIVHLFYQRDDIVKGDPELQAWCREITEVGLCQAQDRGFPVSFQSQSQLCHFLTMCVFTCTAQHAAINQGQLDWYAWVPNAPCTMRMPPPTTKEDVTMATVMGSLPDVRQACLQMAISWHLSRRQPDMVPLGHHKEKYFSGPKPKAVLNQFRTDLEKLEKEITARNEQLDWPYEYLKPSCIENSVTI

Molecular target: Polyunsaturated fatty acid lipoxygenase ALOX12 (Homo sapiens) (UniProt P18054)
Test: Primary qHTS assay for inhibitors of human arachidonate 12S-lipoxygenase (ALOX12): Round 2
Settings: purified 12hLO, xylenol orange hydroperoxide absorbance; activity change, negative = inhibition: at 108 µM (top of the series) unless noted
Summary of the method: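 Hydroperoxide product was detected by ferrous iron/xylenol orange as the 573 to 405 nm absorbance ratio. Arachidonic acid at 40 uM (final) was turned over for 30 min at room temperature by 150 nM human 12hLO, pH 7.0 Hepes buffer, after 15 min compound preincubation.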
% is set by controls: 0 for no effect and ±100 for the full control effect; potency is the fitted concentration of half-maximal effect.

Row | Compound | Potency | activity change, negative = inhibition
1 | CNC(=O)CCn1ncc2cc(OCc3ccccc3-c3cccc(OC)c3F)ccc21 | inconclusive: 89.1 µM [inhibitor, partial curve, poor fit] | –
2 | C=CCNc1nc(-c2cccnc2)nc2ccccc12 | inconclusive: 100 µM [inhibitor, single point] | –
3 | CCN(CC)S(=O)(=O)c1ccc(NS(=O)(=O)c2cccc(C)c2)cc1 | inconclusive: 50.1 µM [inhibitor, partial curve, poor fit] | –
4 | CCc1nnc(N/N=C/c2c(Cl)cccc2Cl)n1N | – | inactive: 14.5%
5 | COc1ccc(Cl)c2sc(N(CCN(C)C)C(=O)CCS(=O)(=O)c3ccc(C)cc3)nc12 | active: 15.8 µM | –
6 | COc1cc(Cl)c(NC(=O)CN2C(=O)c3cccnc3Sc3ccccc32)c(OC)c1 | inconclusive: 126 µM [inhibitor, partial curve, poor fit] | –
7 | COc1ccc(C)cc1S(=O)(=O)NCCC1=CCCCC1 | – | inactive: -15.7%
8 | O=C1CCCC2=C1C(c1cccc(OCc3ccc(Cl)cc3)c1)C1=C(CCCC1=O)O2 | inconclusive: 50.1 µM [inhibitor, partial curve, poor fit] | –
9 | CCC1(c2ccccc2)NC(=O)N(Cc2coc(-c3cccs3)n2)C1=O (centres undefined) | inconclusive: 0.251 µM [inhibitor, single point] | –
10 | Cc1nn(-c2ccccc2)c(-n2cccc2)c1C(=O)NCCCN1CCN(c2ccccc2F)CC1 | inconclusive: 22.4 µM [inhibitor, full curve, poor fit] | –
11 | CN(C)[C@H]1N(C(=O)c2ccc(Br)cc2)N=C2c3ccccc3S(=O)(=O)N21 | – | inactive: -7.72%
12 | CCC1CCCCN1C(=O)COc1ccccc1NC(C)=O (centres undefined) | inconclusive: 70.8 µM [inhibitor, partial curve, poor fit] | –
13 | Cc1c(CC(=O)N2CCN(C(=O)C3COc4ccccc4O3)CC2)c(=O)oc2c(C)c(O)ccc12 (centres undefined) | inactive | –
14 | Cc1nc2ccc(S(=O)(=O)NCC(=O)NCc3ccc(Cl)cc3)cc2s1 | inconclusive: 5.62 µM [inhibitor, partial curve, poor fit] | –
15 | Cc1cc(C)nc(SCc2n[nH]c(=S)n2C)n1 | inconclusive: 31.6 µM [inhibitor, partial curve, poor fit] | –
16 | O=C1CCCC2=C1Sc1ccccc1N2 | inconclusive: 56.2 µM [inhibitor, partial curve, poor fit] | –
17 | COCCCNC(=O)CC1CC2CCC1C2 (centres undefined) | – | inactive: 4.33%
18 | Cn1nnc2c[n+](CC(=O)c3ccc(Cl)cc3)cc(Br)c21 | inconclusive: 141 µM [inhibitor, single point] | –
19 | Cn1c(SCc2nc3ccccc3s2)nnc1-c1cccs1 | inconclusive: 39.8 µM [inhibitor, partial curve, poor fit] | –
20 | Cc1ccc(-n2c([C@@H]3C[C@H]3c3ccccc3)n[nH]c2=S)cc1 | inconclusive: 44.7 µM [inhibitor, partial curve, poor fit] | –
21 | O=C(c1ccccn1)N1CCC2(CC1)C(=O)Nc1ccccc12 | inconclusive: 7.94 µM [inhibitor, full curve, poor fit] | –
22 | COCCN(CCOC)Cc1c(O)ccc2c1O/C(=C\c1ccc(C)o1)C2=O | inconclusive: 50.1 µM [inhibitor, partial curve, poor fit] | –

Laid out differently: entries from further up.
Row,Compound,Potency,"activity change, negative = inhibition"
17,COCCCNC(=O)CC1CC2CCC1C2 (centres undefined),–,inactive: 4.33%
18,Cn1nnc2c[n+](CC(=O)c3ccc(Cl)cc3)cc(Br)c21,"inconclusive: 141 µM [inhibitor, single point]",–
19,Cn1c(SCc2nc3ccccc3s2)nnc1-c1cccs1,"inconclusive: 39.8 µM [inhibitor, partial curve, poor fit]",–
20,Cc1ccc(-n2c([C@@H]3C[C@H]3c3ccccc3)n[nH]c2=S)cc1,"inconclusive: 44.7 µM [inhibitor, partial curve, poor fit]",–
21,O=C(c1ccccn1)N1CCC2(CC1)C(=O)Nc1ccccc12,"inconclusive: 7.94 µM [inhibitor, full curve, poor fit]",–
22,COCCN(CCOC)Cc1c(O)ccc2c1O/C(=C\c1ccc(C)o1)C2=O,"inconclusive: 50.1 µM [inhibitor, partial curve, poor fit]",–

The listing continues:

Row | Compound | Potency | activity change, negative = inhibition
23 | CC(=O)c1sc(N/N=C\c2ccc(N(C)C)cc2)nc1C | inconclusive: 31.6 µM [inhibitor, partial curve, poor fit] | –
24 | COc1ccc(-c2nn(-c3ccccc3)cc2C(=O)Nc2nccs2)cc1 | inconclusive: 89.1 µM [inhibitor, single point] | –
25 | CN(C)c1nc(C(=O)O)nc(N2CCOCC2)n1 | inconclusive: 44.7 µM [inhibitor, partial curve, poor fit] | –
26 | COc1ccc2c(c1)c(C(=O)N/N=C/c1ccc(O)c(O)c1)c(C)n2C | inconclusive: 3.55 µM [inhibitor, full curve] | –
27 | COC(=O)[C@@]1(Cc2ccc(F)cc2)[C@H]2c3cc(C(=O)N4CCCC4)n(CCc4c[nH]c5ccccc45)c3C[C@H]2CN1C(=O)c1ccccc1 | inconclusive: 126 µM [inhibitor, single point] | –
28 | CC(C)Oc1ccc(C(=O)N2CCC(c3nc4ccccc4s3)CC2)cc1 | inconclusive: 89.1 µM [inhibitor, single point] | –
29 | COc1cc(C(=O)Nc2ccc(-c3nc4cc(C)c(C)cc4o3)cc2)cc(OC)c1OC | inconclusive: 56.2 µM [inhibitor, partial curve, poor fit] | –
30 | COc1cc(-c2nc3cc4[nH]c(=O)[nH]c4cc3[nH]2)cc(OC)c1O | inconclusive: 2.51 µM [inhibitor, full curve, poor fit] | –
31 | CN(C)S(=O)(=O)c1ccc(Cl)c(-c2nnc3n2CCCCC3)c1 | inconclusive: 44.7 µM [inhibitor, single point] | –
32 | COc1ccc(C(=O)/C=C/Nc2cccc(O)c2)cc1 | inconclusive: 56.2 µM [inhibitor, partial curve, poor fit] | –
33 | O=C(NC1CC1)c1cc2occc2n1Cc1ccccc1F | inconclusive: 44.7 µM [inhibitor, partial curve, poor fit] | –
34 | CNc1ncnc2ccc(-c3ccccc3C#N)cc12 | inconclusive: 11.2 µM [inhibitor, partial curve, poor fit] | –
35 | CCOC(=O)c1c(C)oc2nc(C)nc(NCCc3ccc(OCC)cc3)c12 | – | inactive: -6.88%
36 | CC(C)(C)c1cc(C(c2cccnc2)N2CCN(CCO)CC2)cc(C(C)(C)C)c1O (centres undefined) | inconclusive: 39.8 µM [inhibitor, partial curve, poor fit] | –
37 | CC(=O)C1=NN(c2ccccc2)C(c2ccc3c(c2)OCO3)N1c1ccccc1 (centres undefined) | inconclusive: 112 µM [inhibitor, single point] | –
38 | O=C1C[C@H]2CC[C@@H](CN1)N2C(=O)c1sc2cccc(F)c2c1Cl | – | inactive: 2.4%
39 | CC(C)CCN1CCC[C@]2(N[C@H](c3ccc(C(F)(F)F)cc3)[C@@H]3C(=O)N(Cc4ccccc4)C(=O)[C@@H]32)C1=O | inconclusive: 14.1 µM [inhibitor, full curve] | –
40 | CCCC1=NN(C(=O)Cc2ccc([N+](=O)[O-])cc2)C(O)(C(F)(F)F)C1 (centres undefined) | – | inactive: -14.6%
41 | CC1(C)CC(=O)C2=C(C1)c1c(ccc3ccccc13)NC2c1ccc(C(=O)O)cc1 (centres undefined) | inconclusive: 44.7 µM [inhibitor, partial curve, poor fit] | –
42 | O=C(CN1CCC(C(=O)c2ccc(F)cc2)CC1)NCc1ccccc1F | – | inactive: -7.37%
43 | CCCN(CC)c1ccc(/C=N/NC(=S)Nc2ccc(C)cc2)cc1 | inconclusive: 44.7 µM [inhibitor, partial curve, poor fit] | –
44 | Cc1ccc(CCC(=O)Nc2ccc([N+](=O)[O-])cc2)o1 | inconclusive: 28.2 µM [inhibitor, single point] | –

Row | Compound | Potency | activity change, negative = inhibition
45 | CCOC(=O)Cc1csc(NC(=O)c2cc(-c3ccncc3)nc3ccccc23)n1 | inconclusive: 7.94 µM [inhibitor, partial curve, poor fit] | –
46 | CC(=O)N1CCC(CC(=O)N(C)Cc2ccccc2)C1 (centres undefined) | – | inactive: 35.1%
47 | O=C(CC1C(=O)N(C2CCCCC2)c2nc3ccccc3n21)Nc1ccc(F)c(F)c1 (centres undefined) | inconclusive: 50.1 µM [inhibitor, partial curve, poor fit] | –
48 | Cc1ccc(C(=O)NNC(=O)CCCN2C(=O)/C(=C/c3ccccc3Cl)SC2=S)cc1 | – | inactive: -5.04%
49 | CC(C)c1ccccc1OCCNC(=S)NC(=O)c1cccnc1 | active: 39.8 µM | –
50 | CCCc1cc(=O)oc2cc(OS(=O)(=O)c3ccc(F)cc3Cl)ccc12 | inconclusive: 112 µM [inhibitor, partial curve, poor fit] | –
51 | Cc1c(NC(=O)COc2cccc(Cl)c2Cl)c(=O)n(-c2ccccc2)n1C | inconclusive: 2 µM [inhibitor, full curve, poor fit] | –
52 | CC(C)(C)c1ccc(COC(=O)c2ccc(S(C)(=O)=O)cc2)cc1 | – | inactive: -28.6%
53 | CC(=O)N1CC2(CCN(Cc3ccc(Cl)cc3)C2)Cc2ccccc21 (centres undefined) | active: 39.8 µM | –
54 | Cc1cccc(CNC(=O)c2ccc(NC(=O)N3CCSc4ncccc43)cc2)c1 | – | inactive: -12.4%
55 | Cc1ccc([C@H]2N[C@]3(CCCN(Cc4ccco4)C3=O)[C@H]3C(=O)N(Cc4ccccc4)C(=O)[C@@H]23)cc1 | inconclusive: 31.6 µM [inhibitor, partial curve, poor fit] | –
56 | Cc1cc(NS(=O)(=O)c2ccc(Nc3nc(-c4ccc(O)cc4)cs3)cc2)no1 | inconclusive: 100 µM [inhibitor, partial curve, poor fit] | –
57 | O=C(/C=C\Nc1ccccn1)c1ccccc1 | – | inactive: 14.9%
58 | Cc1cccn2c(=O)nc(SCC(=O)N3CCC(Cc4ccccc4)CC3)nc12 | inconclusive: 39.8 µM [inhibitor, partial curve, poor fit] | –
59 | CCN(CC)CCN | – | inactive: -2.26% [at 22.9 µM]
60 | CCC(=O)NCCCCCCNC(=O)CC | – | inactive: -3.08% [at 57.4 µM]
61 | C[C@H](NC(N)=O)C(=O)Nc1ccc(N2CCOCC2)c(S(=O)(=O)Nc2ccc(Cl)cc2)c1 | inconclusive: 79.4 µM [inhibitor, partial curve, poor fit] | –
62 | COc1cc2c(cc1OC)C(=S)NC1(CCCC1)C2 | inconclusive: 35.5 µM [inhibitor, partial curve] | –
63 | COC(=O)c1cn(C(=O)c2ccc(C)cc2)c2ccccc12 | – | inconclusive: -30.8% [inhibitor]
64 | C=CCn1c(Sc2ncc([N+](=O)[O-])s2)n[nH]c1=O | inconclusive: 44.7 µM [inhibitor, partial curve, poor fit] | –
